The text below walks through data of PMC5513350.

Chains of the proteins cited; added tags and fusions are not shown.
UniProt Q13148: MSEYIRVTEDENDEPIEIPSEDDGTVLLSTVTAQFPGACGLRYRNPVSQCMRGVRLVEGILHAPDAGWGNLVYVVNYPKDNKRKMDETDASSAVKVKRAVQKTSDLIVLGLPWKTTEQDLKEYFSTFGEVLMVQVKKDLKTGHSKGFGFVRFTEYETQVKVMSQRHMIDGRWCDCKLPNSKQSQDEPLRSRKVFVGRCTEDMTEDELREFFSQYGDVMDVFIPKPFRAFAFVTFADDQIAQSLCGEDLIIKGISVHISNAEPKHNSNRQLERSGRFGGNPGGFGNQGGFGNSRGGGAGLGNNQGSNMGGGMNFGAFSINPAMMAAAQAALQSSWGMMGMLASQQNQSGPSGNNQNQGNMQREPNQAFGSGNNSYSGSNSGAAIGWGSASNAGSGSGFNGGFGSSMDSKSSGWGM

Where two headings read alike, the source gives them in different places. No constants are given. Whether binding was seen depends on the method and setting. Binding seen in cells or lysates may run through a third protein. These calls come from enrichment with a bait or labelling near it, and not all partners need be listed. For some assays here: A no says only that the protein was not detected with the bait. Sequences can lack the tags named with a protein.

What all share (assay): proximity labelling; BioID-MS: bait fused to FLAG-BirA* stably expressed in Flp-In T-REx 293 cells, 1 ug/mL tetracycline, 50 uM biotin; lysis in modified RIPA buffer, streptavidin-sepharose, trypsin, mass spectrometry; two biological replicates alongside negative controls
The target of assay [1] is T1, MYEF2 fused to BirA*-FLAG (human) (UniProt Q9P2K5).
T1 sequence: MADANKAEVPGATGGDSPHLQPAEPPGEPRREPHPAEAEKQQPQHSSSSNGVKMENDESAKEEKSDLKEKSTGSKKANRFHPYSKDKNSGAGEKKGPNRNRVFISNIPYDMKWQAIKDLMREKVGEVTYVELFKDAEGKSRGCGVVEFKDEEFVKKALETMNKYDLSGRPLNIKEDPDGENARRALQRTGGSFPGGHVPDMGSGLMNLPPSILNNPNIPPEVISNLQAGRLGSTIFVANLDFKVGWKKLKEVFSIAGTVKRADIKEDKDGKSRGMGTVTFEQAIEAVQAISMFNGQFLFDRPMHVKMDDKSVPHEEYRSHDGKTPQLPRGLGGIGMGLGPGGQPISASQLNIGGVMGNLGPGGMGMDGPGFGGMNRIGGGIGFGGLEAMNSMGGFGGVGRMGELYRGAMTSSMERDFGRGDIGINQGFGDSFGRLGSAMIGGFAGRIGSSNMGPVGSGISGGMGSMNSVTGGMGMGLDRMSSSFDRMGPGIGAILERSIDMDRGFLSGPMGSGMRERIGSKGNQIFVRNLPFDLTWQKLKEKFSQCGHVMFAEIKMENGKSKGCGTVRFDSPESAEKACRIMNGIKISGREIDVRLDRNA

Assay [2] has as its target T2, HNRNPM fused to BirA*-FLAG (human) (UniProt P52272).
T2 sequence: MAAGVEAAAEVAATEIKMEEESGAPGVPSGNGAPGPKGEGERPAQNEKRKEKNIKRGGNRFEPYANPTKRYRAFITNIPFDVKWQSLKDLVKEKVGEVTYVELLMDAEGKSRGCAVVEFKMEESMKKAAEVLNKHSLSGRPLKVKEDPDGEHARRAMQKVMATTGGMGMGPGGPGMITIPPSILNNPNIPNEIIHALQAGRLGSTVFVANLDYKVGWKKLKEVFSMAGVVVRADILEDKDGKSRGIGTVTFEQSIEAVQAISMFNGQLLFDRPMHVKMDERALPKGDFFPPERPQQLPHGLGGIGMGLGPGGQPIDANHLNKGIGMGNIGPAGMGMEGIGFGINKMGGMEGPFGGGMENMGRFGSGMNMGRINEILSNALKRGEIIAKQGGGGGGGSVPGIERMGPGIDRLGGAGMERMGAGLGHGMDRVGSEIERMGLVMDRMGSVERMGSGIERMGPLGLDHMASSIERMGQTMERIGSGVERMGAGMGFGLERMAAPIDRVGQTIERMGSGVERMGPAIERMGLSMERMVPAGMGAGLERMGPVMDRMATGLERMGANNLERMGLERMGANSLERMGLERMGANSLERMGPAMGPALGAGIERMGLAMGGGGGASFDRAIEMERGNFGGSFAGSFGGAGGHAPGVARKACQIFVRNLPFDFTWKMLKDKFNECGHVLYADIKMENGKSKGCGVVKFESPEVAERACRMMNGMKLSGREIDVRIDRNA

For assay [3], the target named is T1, MYEF2 fused to BirA*-FLAG (human). The source holds these as a separate data set.
Assay [4] concerns the target T2, HNRNPM fused to BirA*-FLAG (human). This is another data set of the same source.

In the case of “TARDBP/TDP43 (from UniProt Q13148 1-414)”, the binding result in assay [1] and in assay [2] was “binds” in each case.

B1: DGCR8 (protein, UniProt Q8WYQ5 1-773)
chain: METDESPSPLPCGPAGEAVMESRARPFQALPREQSPPPPLQTSSGAEVMDVGSGGDGQSELPAEDPFNFYGASLLSKGSFSKGRLLIDPNCSGHSPRTARHAPAVRKFSPDLKLLKDVKISVSFTESCRSKDRKVLYTGAERDVRAECGLLLSPVSGDVHACPFGGSVGDGVGIGGESADKKDEENELDQEKRVEYAVLDELEDFTDNLELDEEGAGGFTAKAIVQRDRVDEEALNFPYEDDFDNDVDALLEEGLCAPKKRRTEEKYGGDSDHPSDGETSVQPMMTKIKTVLKSRGRPPTEPLPDGWIMTFHNSGVPVYLHRESRVVTWSRPYFLGTGSIRKHDPPLSSIPCLHYKKMKDNEEREQSSDLTPSGDVSPVKPLSRSAELEFPLDEPDSMGADPGPPDEKDPLGAEAAPGALGQVKAKVEVCKDESVDLEEFRSYLEKRFDFEQVTVKKFRTWAERRQFNREMKRKQAESERPILPANQKLITLSVQDAPTKKEFVINPNGKSEVCILHEYMQRVLKVRPVYNFFECENPSEPFGASVTIDGVTYGSGTASSKKLAKNKAARATLEILIPDFVKQTSEEKPKDSEELEYFNHISIEDSRVYELTSKAGLLSPYQILHECLKRNHGMGDTSIKFEVVPGKNQKSEYVMACGKHTVRGWCKNKRVGKQLASQKILQLLHPHVKNWGSLLRMYGRESSKMVKQETSDKSVIELQQYAKKNKPNLHILSKLQEEMKRLAEEREETRKKPKMSIVASAQPGGEPLCTVDV
For the molecule B1, in assay [3], the binding entry is recorded as “binds”.

B2: DROSHA (protein, UniProt Q9NRR4 1-1374)
chain: MMQGNTCHRMSFHPGRGCPRGRGGHGARPSAPSFRPQNLRLLHPQQPPVQYQYEPPSAPSTTFSNSPAPNFLPPRPDFVPFPPPMPPSAQGPLPPCPIRPPFPNHQMRHPFPVPPCFPPMPPPMPCPNNPPVPGAPPGQGTFPFMMPPPSMPHPPPPPVMPQQVNYQYPPGYSHHNFPPPSFNSFQNNPSSFLPSANNSSSPHFRHLPPYPLPKAPSERRSPERLKHYDDHRHRDHSHGRGERHRSLDRRERGRSPDRRRQDSRYRSDYDRGRTPSRHRSYERSRERERERHRHRDNRRSPSLERSYKKEYKRSGRSYGLSVVPEPAGCTPELPGEIIKNTDSWAPPLEIVNHRSPSREKKRARWEEEKDRWSDNQSSGKDKNYTSIKEKEPEETMPDKNEEEEEELLKPVWIRCTHSENYYSSDPMDQVGDSTVVGTSRLRDLYDKFEEELGSRQEKAKAARPPWEPPKTKLDEDLESSSESECESDEDSTCSSSSDSEVFDVIAEIKRKKAHPDRLHDELWYNDPGQMNDGPLCKCSAKARRTGIRHSIYPGEEAIKPCRPMTNNAGRLFHYRITVSPPTNFLTDRPTVIEYDDHEYIFEGFSMFAHAPLTNIPLCKVIRFNIDYTIHFIEEMMPENFCVKGLELFSLFLFRDILELYDWNLKGPLFEDSPPCCPRFHFMPRFVRFLPDGGKEVLSMHQILLYLLRCSKALVPEEEIANMLQWEELEWQKYAEECKGMIVTNPGTKPSSVRIDQLDREQFNPDVITFPIIVHFGIRPAQLSYAGDPQYQKLWKSYVKLRHLLANSPKVKQTDKQKLAQREEALQKIRQKNTMRREVTVELSSQGFWKTGIRSDVCQHAMMLPVLTHHIRYHQCLMHLDKLIGYTFQDRCLLQLAMTHPSHHLNFGMNPDHARNSLSNCGIRQPKYGDRKVHHMHMRKKGINTLINIMSRLGQDDPTPSRINHNERLEFLGDAVVEFLTSVHLYYLFPSLEEGGLATYRTAIVQNQHLAMLAKKLELDRFMLYAHGPDLCRESDLRHAMANCFEALIGAVYLEGSLEEAKQLFGRLLFNDPDLREVWLNYPLHPLQLQEPNTDRQLIETSPVLQKLTEFEEAIGVIFTHVRLLARAFTLRTVGFNHLTLGHNQRMEFLGDSIMQLVATEYLFIHFPDHHEGHLTLLRSSLVNNRTQAKVAEELGMQEYAITNDKTKRPVALRTKTLADLLESFIAALYIDKDLEYVHTFMNVCFFPRLKEFILNQDWNDPKSQLQQCCLTLRTEGKEPDIPLYKTLQTVGPSHARTYTVAVYFKGERIGCGKGPSIQQAEMGAAMDALEKYNFPQMAHQKRFIERKYRQELKEMRWEREHQEREPDETEDIKK
For the molecule B2, the values for the binding result in assay [3] and in assay [4] were “binds” and “no binding”, respectively.
